The test concerns the target DPD variant G926V (human) (UniProt Q12882). Nature of the test: native gel or EMSA; blue native PAGE (Tris-glycine buffer, 5%-20% polyacrylamide gels), 9 μg of the soluble fraction of transfected 293FT cells per lane, immunoblot with polyclonal anti-human DPD antibody; monomer to dimer. On the technique in general: In EMSA bound probe runs differently from free probe, usually more slowly.

No constants are given. Whether binding was seen depends on the method and setting.

B1: DPD variant G926V (enzyme, UniProt Q12882 4-1025)
chain: VLSKDSADIESILALNPRTQTHATLCSTSAKKLDKKHWKRNPDKNCFNCEKLENNFDDIKHTTLGERGALREAMRCLKCADAPCQKSCPTNLDIKSFITSIANKNYYGAAKMIFSDNPLGLTCGMVCPTSDLCVGGCNLYATEEGPINIGGLQQFATEVFKAMSIPQIRNPSLPPPEKMSEAYSAKIALFGAGPASISCASFLARLGYSDITIFEKQEYVGGLSTSEIPQFRLPYDVVNFEIELMKDLGVKIICGKSLSVNEMTLSTLKEKGYKAAFIGIGLPEPNKDAIFQGLTQDQGFYTSKDFLPLVAKGSKAGMCACHSPLPSIRGVVIVLGAGDTAFDCATSALRCGARRVFIVFRKGFVNIRAVPEEMELAKEEKCEFLPFLSPRKVIVKGGRIVAMQFVRTEQDETGKWNEDEDQMVHLKADVVISAFGSVLSDPKVKEALSPIKFNRWGLPEVDPETMQTSEAWVFAGGDVVGLANTTVESVNDGKQASWYIHKYVQSQYGASVSAKPELPLFYTPIDLVDISVEMAGLKFINPFGLASATPATSTSMIRRAFEAGWGFALTKTFSLDKDIVTNVSPRIIRGTTSGPMYGPGQSSFLNIELISEKTAAYWCQSVTELKADFPDNIVIASIMCSYNKNDWTELAKKSEDSGADALELNLSCPHGMGERGMGLACGQDPELVRNICRWVRQAVQIPFFAKLTPNVTDIVSIARAAKEGGANGVTATNTVSGLMGLKSDGTPWPAVGIAKRTTYGGVSGTAIRPIALRAVTSIARALPGFPILATGGIDSAESGLQFLHSGASVLQVCSAIQNQDFTVIEDYCTGLKALLYLKSIEELQDWDGQSPATVSHQKGKPVPRIAELMDKKLPSFGPYLEQRKKIIAENKIRLKEQNVAFSPLKRNCFIPKRPIPTIKDVIVKALQYLGTFGELSNVEQVVAMIDEEMCINCGKCYMTCNDSGYQAIQFDPETHLPTITDTCTGCTLCLSVCPIVDCIKMVSRTTPYEPKRGVPLSVNPVC
As to B1, the binding entry is recorded as “no binding”.
